These are yes or no findings as the source states them, for the method shown. Binding seen in cells or lysates may run through a third protein. Some binding calls cover weakened binding; strength is not graded here.
Assays:
Myc-tagged TFEB = Myc-tagged TFEB (UniProt P19484); experiment: co-IP; 293T cells co-transfected with Erbin and TFEB plasmids (full length or truncated), 48 h; co-IP and immunoblot with the indicated antibodies; lysis in 50 mM Tris-HCl, 150 mM NaCl, 1% Triton X-100, 1 mM EDTA, 10% glycerol, pH 7.4; washes with 300 mM NaCl
[1] = molecular target: T1, N-terminal of TFEB (aa 1-247) (UniProt P19484); experiment: as above
T1 sequence: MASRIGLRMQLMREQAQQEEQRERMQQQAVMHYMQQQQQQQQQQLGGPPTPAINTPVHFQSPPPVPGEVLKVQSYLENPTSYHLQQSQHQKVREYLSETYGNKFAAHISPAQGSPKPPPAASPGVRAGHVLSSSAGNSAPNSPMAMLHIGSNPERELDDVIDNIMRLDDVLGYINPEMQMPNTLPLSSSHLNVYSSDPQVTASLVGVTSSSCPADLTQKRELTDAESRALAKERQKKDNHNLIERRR

By UniProt entry, the sequences of proteins in these tests, tags left out. Where a name states a change or a piece, a line headed by the entry shows the natural chain unless it says otherwise.
UniProt Q96RT1: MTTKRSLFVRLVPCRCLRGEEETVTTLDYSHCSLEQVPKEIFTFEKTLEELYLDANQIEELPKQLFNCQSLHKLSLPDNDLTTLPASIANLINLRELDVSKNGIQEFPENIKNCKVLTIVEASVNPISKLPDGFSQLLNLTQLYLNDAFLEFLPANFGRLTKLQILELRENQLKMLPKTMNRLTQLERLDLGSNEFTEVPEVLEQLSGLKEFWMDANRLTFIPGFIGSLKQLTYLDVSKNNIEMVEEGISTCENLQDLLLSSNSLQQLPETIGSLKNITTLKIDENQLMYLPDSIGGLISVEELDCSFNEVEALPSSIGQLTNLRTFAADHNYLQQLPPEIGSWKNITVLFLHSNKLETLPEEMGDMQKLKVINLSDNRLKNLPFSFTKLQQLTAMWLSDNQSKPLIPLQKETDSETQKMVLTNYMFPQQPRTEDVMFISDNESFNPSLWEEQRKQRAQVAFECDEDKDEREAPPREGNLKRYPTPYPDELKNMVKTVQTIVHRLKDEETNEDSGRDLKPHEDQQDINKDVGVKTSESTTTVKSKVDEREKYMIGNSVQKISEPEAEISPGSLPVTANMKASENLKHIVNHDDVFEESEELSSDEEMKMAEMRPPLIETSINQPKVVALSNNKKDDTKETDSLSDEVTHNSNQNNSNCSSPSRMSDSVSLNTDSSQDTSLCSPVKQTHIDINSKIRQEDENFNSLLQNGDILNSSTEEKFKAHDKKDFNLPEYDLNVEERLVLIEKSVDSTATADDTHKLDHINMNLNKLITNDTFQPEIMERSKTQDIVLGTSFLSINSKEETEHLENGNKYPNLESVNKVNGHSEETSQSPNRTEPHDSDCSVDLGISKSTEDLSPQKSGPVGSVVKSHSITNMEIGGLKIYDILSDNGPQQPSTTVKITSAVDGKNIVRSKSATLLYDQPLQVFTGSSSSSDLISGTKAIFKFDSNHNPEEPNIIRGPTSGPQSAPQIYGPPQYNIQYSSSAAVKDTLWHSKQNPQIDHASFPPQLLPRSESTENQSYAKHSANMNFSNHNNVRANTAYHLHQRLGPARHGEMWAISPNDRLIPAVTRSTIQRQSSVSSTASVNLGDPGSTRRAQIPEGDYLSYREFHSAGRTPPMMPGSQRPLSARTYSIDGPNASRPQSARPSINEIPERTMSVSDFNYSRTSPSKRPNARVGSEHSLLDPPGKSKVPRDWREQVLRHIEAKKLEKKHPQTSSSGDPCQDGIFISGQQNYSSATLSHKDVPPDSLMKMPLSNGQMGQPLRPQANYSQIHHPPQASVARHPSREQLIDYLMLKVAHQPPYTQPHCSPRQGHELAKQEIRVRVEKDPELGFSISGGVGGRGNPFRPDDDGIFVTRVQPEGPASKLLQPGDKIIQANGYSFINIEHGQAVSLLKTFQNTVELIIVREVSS

[2] = molecular target: TFEB (of the experiment of Fig. 6C) (UniProt P19484); experiment: co-IP; 293T cells transfected with Flag-TFEB and/or HA-Erbin; TFEB with 14-3-3 or PPP3CB of the lysate, with or without co-expressed HA-Erbin; immunoblot with the indicated antibodies

binding (Myc-tagged TFEB) | binding [1] | binding [2] | Substance
binds |  |  | C-terminal of Erbin (aa 391-964) (from UniProt Q96RT1 391-964) (domain or fragment)
binds | binds |  | HA-tagged Erbin (from UniProt Q96RT1 1-1412)
 |  | binds | PPP3CB (from UniProt P16298 1-524) (enzyme)
